Measurements published in the supplement of paper PMC10849652.
This is one part of the list.

The chains behind the UniProt entries cited, without tags or fusion partners. Where a name states a change or a piece, a line headed by the entry shows the natural chain unless it says otherwise.
UniProt Q03426, whole entry, looked up: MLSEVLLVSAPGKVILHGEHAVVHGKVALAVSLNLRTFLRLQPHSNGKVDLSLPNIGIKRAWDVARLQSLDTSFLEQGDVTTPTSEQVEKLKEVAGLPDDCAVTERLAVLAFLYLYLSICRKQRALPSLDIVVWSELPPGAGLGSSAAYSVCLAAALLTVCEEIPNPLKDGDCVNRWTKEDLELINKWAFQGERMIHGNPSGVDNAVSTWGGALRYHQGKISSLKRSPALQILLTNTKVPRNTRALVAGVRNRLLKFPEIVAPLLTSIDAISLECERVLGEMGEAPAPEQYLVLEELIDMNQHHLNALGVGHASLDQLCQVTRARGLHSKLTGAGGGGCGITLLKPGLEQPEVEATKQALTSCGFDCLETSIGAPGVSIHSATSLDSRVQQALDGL
UniProt O94832: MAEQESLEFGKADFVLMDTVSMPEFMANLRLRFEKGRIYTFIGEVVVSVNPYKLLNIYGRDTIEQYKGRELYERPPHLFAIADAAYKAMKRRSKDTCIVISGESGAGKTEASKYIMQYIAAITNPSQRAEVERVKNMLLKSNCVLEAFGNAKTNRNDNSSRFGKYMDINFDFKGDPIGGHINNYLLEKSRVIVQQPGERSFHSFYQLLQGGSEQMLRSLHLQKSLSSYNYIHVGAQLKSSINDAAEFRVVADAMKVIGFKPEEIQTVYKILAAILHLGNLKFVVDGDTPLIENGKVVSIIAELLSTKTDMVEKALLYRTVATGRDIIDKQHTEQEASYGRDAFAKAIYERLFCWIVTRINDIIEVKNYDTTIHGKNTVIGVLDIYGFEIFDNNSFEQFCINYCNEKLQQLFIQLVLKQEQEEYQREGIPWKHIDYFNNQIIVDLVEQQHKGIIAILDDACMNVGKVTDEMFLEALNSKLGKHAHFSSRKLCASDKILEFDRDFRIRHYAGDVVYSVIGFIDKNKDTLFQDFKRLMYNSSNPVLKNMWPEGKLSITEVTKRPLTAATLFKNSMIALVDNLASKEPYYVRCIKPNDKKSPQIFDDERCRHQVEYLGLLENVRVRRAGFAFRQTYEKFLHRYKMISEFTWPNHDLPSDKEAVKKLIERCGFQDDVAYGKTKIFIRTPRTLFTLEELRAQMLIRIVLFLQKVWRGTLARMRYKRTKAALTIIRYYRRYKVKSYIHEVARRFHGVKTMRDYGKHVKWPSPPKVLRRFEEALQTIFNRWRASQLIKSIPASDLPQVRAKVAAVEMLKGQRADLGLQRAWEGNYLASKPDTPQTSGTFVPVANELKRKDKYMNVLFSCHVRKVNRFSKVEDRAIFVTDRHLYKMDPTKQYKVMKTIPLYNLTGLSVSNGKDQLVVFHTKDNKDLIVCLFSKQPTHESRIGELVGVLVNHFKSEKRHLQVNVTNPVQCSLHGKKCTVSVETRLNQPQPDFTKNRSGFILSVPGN
UniProt Q6P444: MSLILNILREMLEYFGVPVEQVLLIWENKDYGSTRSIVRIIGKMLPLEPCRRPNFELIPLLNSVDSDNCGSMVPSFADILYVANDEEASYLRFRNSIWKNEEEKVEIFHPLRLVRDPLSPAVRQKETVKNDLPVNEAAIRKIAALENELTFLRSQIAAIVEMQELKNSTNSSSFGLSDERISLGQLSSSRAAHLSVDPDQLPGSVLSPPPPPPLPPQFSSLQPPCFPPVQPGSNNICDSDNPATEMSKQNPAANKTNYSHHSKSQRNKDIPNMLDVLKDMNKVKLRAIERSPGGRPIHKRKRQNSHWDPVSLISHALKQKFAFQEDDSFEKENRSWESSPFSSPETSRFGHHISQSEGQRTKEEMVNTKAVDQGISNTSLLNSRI
UniProt Q96QG7: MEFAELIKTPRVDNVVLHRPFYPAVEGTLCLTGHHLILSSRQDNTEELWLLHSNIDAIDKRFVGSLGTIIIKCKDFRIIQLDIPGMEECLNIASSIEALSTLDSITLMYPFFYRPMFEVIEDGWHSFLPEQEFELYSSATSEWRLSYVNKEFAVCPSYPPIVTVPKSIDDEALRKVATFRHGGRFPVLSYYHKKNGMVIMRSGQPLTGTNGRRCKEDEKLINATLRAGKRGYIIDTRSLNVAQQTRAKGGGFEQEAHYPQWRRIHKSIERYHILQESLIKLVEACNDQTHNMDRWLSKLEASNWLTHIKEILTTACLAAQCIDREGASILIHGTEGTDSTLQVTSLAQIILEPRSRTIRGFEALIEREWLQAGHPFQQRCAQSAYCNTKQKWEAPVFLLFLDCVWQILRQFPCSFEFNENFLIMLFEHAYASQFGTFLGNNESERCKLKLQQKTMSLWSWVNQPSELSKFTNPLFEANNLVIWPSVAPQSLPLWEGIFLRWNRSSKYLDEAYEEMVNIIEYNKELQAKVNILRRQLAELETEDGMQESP
UniProt Q9BUK6: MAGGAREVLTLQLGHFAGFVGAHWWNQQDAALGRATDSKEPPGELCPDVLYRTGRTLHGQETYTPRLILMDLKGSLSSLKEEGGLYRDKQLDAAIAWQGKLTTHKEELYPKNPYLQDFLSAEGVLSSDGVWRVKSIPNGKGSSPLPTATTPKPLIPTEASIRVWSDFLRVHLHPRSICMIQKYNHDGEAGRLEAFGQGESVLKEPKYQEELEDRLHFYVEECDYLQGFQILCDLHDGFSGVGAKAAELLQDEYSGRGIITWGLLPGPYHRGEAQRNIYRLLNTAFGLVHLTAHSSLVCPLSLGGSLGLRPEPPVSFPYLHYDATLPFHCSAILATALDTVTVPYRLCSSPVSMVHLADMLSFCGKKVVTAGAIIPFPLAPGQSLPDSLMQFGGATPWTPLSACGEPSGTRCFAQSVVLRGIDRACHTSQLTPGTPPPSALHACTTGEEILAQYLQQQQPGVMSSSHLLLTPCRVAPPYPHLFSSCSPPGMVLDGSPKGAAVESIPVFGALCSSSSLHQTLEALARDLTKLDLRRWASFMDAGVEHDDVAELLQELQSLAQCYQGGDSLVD
UniProt P13995: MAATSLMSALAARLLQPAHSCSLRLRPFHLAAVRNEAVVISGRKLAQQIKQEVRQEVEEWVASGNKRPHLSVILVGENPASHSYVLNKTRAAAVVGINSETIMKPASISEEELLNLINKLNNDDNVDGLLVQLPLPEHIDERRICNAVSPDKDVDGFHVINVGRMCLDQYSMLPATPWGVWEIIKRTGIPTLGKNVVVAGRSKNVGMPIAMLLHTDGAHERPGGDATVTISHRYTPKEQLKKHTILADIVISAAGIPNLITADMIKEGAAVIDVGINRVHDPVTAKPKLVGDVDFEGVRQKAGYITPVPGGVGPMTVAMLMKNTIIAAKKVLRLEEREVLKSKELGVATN
UniProt Q9BRK3: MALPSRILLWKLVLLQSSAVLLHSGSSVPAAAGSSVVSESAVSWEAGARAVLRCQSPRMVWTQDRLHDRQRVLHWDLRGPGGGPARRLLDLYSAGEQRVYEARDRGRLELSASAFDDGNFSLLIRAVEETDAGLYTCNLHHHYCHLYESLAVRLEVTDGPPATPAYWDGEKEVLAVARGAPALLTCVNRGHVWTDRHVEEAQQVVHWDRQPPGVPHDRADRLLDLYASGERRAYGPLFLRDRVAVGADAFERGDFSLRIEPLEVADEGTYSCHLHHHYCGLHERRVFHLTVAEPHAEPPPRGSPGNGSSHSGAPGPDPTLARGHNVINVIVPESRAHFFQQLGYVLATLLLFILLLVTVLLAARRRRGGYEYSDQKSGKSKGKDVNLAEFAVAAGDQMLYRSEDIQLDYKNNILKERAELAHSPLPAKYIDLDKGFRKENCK
UniProt P43246, whole entry, looked up: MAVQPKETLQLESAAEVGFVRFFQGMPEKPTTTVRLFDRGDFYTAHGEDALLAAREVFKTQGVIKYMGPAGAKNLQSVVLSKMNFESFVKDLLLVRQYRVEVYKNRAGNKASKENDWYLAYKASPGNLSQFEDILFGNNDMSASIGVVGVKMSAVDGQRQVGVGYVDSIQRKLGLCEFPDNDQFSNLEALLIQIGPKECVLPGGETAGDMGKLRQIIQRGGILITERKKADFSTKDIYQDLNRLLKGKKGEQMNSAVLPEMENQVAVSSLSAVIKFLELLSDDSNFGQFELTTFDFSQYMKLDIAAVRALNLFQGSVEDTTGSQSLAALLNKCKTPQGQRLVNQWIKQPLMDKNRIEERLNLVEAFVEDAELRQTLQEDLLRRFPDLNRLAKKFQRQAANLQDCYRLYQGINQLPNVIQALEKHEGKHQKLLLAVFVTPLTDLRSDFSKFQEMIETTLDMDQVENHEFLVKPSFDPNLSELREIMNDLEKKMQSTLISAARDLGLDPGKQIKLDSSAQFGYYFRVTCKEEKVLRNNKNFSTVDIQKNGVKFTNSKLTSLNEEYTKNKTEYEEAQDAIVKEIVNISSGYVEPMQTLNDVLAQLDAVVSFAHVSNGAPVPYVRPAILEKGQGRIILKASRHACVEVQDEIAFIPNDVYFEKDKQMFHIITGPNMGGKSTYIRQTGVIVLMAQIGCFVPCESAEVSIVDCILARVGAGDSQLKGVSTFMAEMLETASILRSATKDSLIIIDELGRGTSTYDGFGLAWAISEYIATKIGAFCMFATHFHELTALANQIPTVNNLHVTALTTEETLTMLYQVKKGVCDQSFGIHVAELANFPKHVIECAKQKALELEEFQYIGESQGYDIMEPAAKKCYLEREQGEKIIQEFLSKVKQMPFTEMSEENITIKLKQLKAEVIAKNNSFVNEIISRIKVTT
UniProt Q6UB35, whole entry, looked up: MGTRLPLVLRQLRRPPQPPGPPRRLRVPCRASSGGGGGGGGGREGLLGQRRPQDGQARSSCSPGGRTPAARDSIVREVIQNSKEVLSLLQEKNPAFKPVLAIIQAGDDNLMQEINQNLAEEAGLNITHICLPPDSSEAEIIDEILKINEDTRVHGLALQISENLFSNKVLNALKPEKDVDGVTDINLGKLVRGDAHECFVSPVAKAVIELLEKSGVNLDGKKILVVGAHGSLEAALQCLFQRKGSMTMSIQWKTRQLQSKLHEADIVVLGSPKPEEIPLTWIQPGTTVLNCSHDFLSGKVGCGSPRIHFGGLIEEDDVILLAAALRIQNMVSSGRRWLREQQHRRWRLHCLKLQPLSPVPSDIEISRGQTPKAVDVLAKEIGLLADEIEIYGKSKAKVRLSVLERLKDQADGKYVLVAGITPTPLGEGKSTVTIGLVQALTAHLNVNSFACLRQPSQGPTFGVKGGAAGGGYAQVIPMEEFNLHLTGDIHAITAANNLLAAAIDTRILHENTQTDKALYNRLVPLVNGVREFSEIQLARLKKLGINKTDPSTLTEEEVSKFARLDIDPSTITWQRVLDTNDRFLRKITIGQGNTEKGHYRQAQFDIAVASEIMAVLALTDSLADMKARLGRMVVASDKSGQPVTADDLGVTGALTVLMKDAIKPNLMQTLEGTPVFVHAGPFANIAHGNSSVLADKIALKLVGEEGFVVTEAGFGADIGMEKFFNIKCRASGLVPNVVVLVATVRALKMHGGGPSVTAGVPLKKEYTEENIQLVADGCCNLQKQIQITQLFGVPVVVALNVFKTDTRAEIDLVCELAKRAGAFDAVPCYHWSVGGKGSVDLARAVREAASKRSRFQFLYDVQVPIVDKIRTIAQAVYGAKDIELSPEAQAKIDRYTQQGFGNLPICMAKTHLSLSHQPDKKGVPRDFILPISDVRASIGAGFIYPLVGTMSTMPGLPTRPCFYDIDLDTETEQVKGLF
UniProt Q9H019: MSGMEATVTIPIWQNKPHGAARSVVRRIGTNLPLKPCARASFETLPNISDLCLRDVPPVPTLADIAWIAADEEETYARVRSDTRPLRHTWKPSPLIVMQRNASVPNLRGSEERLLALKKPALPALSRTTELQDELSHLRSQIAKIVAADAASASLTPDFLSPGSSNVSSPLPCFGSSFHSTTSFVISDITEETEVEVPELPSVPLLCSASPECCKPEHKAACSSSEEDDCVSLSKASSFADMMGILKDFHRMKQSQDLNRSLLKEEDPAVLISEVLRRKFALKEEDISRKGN
UniProt P60660, whole entry, looked up: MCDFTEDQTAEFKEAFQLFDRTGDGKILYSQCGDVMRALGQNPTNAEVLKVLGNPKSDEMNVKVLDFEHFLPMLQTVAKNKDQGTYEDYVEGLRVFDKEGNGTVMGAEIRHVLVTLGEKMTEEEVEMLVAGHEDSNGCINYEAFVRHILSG
UniProt P00403, whole entry, looked up: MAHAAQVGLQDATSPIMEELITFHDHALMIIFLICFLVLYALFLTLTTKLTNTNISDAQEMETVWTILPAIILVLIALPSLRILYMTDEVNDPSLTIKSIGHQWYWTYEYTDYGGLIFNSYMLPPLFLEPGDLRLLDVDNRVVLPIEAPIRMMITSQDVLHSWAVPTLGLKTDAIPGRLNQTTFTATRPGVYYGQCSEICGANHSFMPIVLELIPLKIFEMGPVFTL

What was measured:
Test in all cases: log2 fold change, soluble protein after heating vs DMSO (PISA); higher = thermal stabilisation; K562 cells, 10 uM, 30 min; active = over 0.2 and 3.5 SD of the protein, either way, in both replicates (recomputed)
erlotinib = compound: C#Cc1cccc(Nc2ncnc3cc(OCCOC)c(OCCOC)cc23)c1 [erlotinib]
Method in brief: (§1)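 Values are thermal stability changes relative to control samples and are taken from duplicates. They are stated as log2 fold changes. Before quantification by TMTpro 16plex LC-MS/MS with equalised channel sums, K562 cells at 2×10^6 cells/mL were treated with 10 μM compound for 30 min, heated in aliquots for 3 min across 48°C-58°C, pooled, extracted in PBS with 0.5% NP-40 at 4°C, and centrifuged at 21,000xg for 90 min to give the soluble supernatant.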

[1] = compound: C/C(=N\NC(=O)C1=CC(=CC=C1)S(=O)(=O)N2CCOCC2)/C3=C(C=CC(=C3)Cl)O
Method in brief: as §1

[2] = compound: C1=CC(=C(C=C1Cl)C2=NC3=NC=CN=C3C(=N2)NC4=CC=NC=C4)F
Method in brief: as §1

[3] = compound: C1=CC(=CC=C1C2=NC3=C(N2)C=C(C=C3)C(=O)N)OC4=CC=C(C=C4)Cl
Method in brief: as §1

[4] = compound: C1=CC2=C(C=CC(=C2)/C=C\3/C(=O)NC(=NCC4=CC=CS4)S3)N=C1
Method in brief: as §1

[5] = compound: C1=CC2=NC=CN=C2C=C1/C=C/3\C(=O)NC(=O)S3
Method in brief: as §1

[6] = compound: C1=CC=C(C=C1)C2=NC(=C(N2)C3=CC=NC=C3)C4=CC(=C(C=C4)Cl)O
Method in brief: as §1

[7] = compound: C1=CC=C2C(=C1)C3=NNC4=CC=CC(=C43)C2=O
Method in brief: as §1

[8] = compound: C1CCN(C1)C(=O)NC2=CC=CC(=C2)NC3=NC=C(C(=N3)NCCC4=CN=CN4)Br
Method in brief: as §1

[9] = compound: C1CN(CCC1(CC2=CC=C(C=C2)Cl)N)C3=NC=NC4=C3C=CN4
Method in brief: as §1

Measured: log2 fold change

MRPS33 (UniProt Q9Y291)
inactive: erlotinib 0.023 | [1] -0.018 | [2] -0.129 | [3] 0.021 | [4] 0.019 | [5] 0.032 | [6] -0.043 | [7] 0.018 | [8] 0.026 | [9] -0.133

MVK (UniProt Q03426)
inactive: erlotinib 0.027 | [1] 0.088 | [2] 0.024 | [3] -0.014 | [4] 0 | [5] 0.021 | [6] 0.01 | [7] -0.005 | [8] 0.031 | [9] 0.011

MYO1D (UniProt O94832)
inactive: erlotinib 0.037 | [1] -0.006 | [2] -0.216 | [3] 0.013 | [4] 0.084 | [5] -0.051 | [6] 0.094 | [7] 0.018 | [8] -0.08 | [9] -0.05

MRPS18A isoform 2 (UniProt Q9NVS2)
inactive: erlotinib -0.092 | [1] -0.196 | [2] -0.252 | [3] 0.043 | [4] -0.045 | [5] 0.008 | [6] -0.043 | [7] 0.097 | [8] -0.076 | [9] -0.199

MTFR2 (UniProt Q6P444)
inactive: erlotinib 0.132 | [1] -0.01 | [2] -0.034 | [3] -0.049 | [4] -0.114 | [5] 0.087 | [6] 0.012 | [7] -0.11 | [8] 0.036 | [9] -0.042

MTMR9 (UniProt Q96QG7)
inactive: erlotinib 0.084 | [1] 0.041 | [2] 0.06 | [3] 0.001 | [4] 0.099 | [5] -0.017 | [6] 0.016 | [7] 0.077 | [8] -0.058 | [9] -0.053

MRPS11 (UniProt P82912)
inactive: erlotinib 0.006 | [1] -0.068 | [2] 0.165 | [3] 0.12 | [4] -0.029 | [5] -0.001 | [6] 0.098 | [7] 0.186 | [8] -0.214 | [9] -0.059

MYCBP2 (UniProt O75592)
inactive: erlotinib 0.073 | [1] -0.241 | [2] -0.119 | [3] 0.057 | [4] 0.028 | [5] -0.154 | [6] -0.249 | [7] -0.009 | [8] 0.357 | [9] 0.201

MRPS34 (UniProt P82930)
inactive: erlotinib -0.06 | [1] 0.062 | [2] -0.071 | [3] 0.092 | [4] -0.013 | [5] -0.065 | [6] 0.001 | [7] 0.036 | [8] 0.056 | [9] -0.129

MSTO1 (UniProt Q9BUK6)
inactive: erlotinib 0.031 | [1] 0.06 | [2] 0.075 | [3] -0.044 | [4] -0.003 | [5] 0.007 | [6] 0.038 | [7] 0.043 | [8] 0.011 | [9] -0.041

MRPS21 (UniProt P82921)
inactive: erlotinib 0.014 | [1] -0.04 | [2] -0.096 | [3] 0.042 | [4] -0.241 | [5] -0.138 | [6] -0.019 | [7] 0.297 | [8] -0.091 | [9] -0.07

MTHFD2 (UniProt P13995)
inactive: erlotinib 0.058 | [1] -0.015 | [2] 0.078 | [3] -0.003 | [4] 0.035 | [5] 0.015 | [6] 0 | [7] 0.004 | [8] 0.038 | [9] 0.005

MRPS18B (UniProt Q9Y676)
inactive: erlotinib 0.026 | [1] 0.101 | [2] -0.051 | [3] 0.124 | [4] 0.03 | [5] 0.034 | [6] 0.027 | [7] 0.119 | [8] 0.079 | [9] -0.119

Two neighbouring entries out of the list so far, quoted:
MRPS34 (UniProt P82930)
inactive: erlotinib -0.06 | [1] 0.062 | [2] -0.071 | [3] 0.092 | [4] -0.013 | [5] -0.065 | [6] 0.001 | [7] 0.036 | [8] 0.056 | [9] -0.129

MSTO1 (UniProt Q9BUK6)
inactive: erlotinib 0.031 | [1] 0.06 | [2] 0.075 | [3] -0.044 | [4] -0.003 | [5] 0.007 | [6] 0.038 | [7] 0.043 | [8] 0.011 | [9] -0.041

Next results.

MRPL9 (UniProt Q9BYD2)
inactive: erlotinib -0.13 | [1] -0.151 | [2] -0.032 | [3] 0.021 | [4] 0.011 | [5] -0.044 | [6] 0.067 | [7] 0.116 | [8] -0.112 | [9] -0.163

MXRA8 isoform 2 (UniProt Q9BRK3)
inactive: erlotinib 0.02 | [1] 0.004 | [2] 0.142 | [3] 0.076 | [4] 0.032 | [5] 0.115 | [6] -0.279 | [7] 0.057 | [8] 0.048 | [9] 0.016

MRTO4 (UniProt Q9UKD2)
inactive: erlotinib -0.006 | [1] 0.04 | [2] -0.343 | [3] 0.189 | [4] -0.26 | [5] 0.007 | [6] -0.09 | [7] 0.059 | [8] 0.001 | [9] 0.024

MSH2 (UniProt P43246)
inactive: erlotinib 0.038 | [1] 0.109 | [2] 0.066 | [3] -0.004 | [4] 0.037 | [5] 0.025 | [6] -0.016 | [7] 0.035 | [8] -0.064 | [9] -0.059

MRPS12 (UniProt O15235)
inactive: erlotinib -0.013 | [1] 0.008 | [2] -0.13 | [3] 0.095 | [4] -0.052 | [5] 0.018 | [6] 0.099 | [7] 0.165 | [8] 0.025 | [9] -0.063

MTHFD1L (UniProt Q6UB35)
inactive: erlotinib -0.031 | [1] 0.031 | [2] 0.049 | [3] 0.013 | [4] 0.05 | [5] 0.016 | [6] 0.029 | [7] 0.053 | [8] 0.003 | [9] 0.043

MRPS17 (UniProt Q9Y2R5)
inactive: erlotinib -0.034 | [1] -0.019 | [2] -0.125 | [3] 0.142 | [4] -0.062 | [5] 0 | [6] 0.042 | [7] 0.088 | [8] -0.014 | [9] -0.126

MRPS9 (UniProt P82933)
inactive: erlotinib -0.057 | [1] -0.019 | [2] -0.087 | [3] 0.137 | [4] 0.019 | [5] 0.04 | [6] 0.023 | [7] 0.043 | [8] 0.002 | [9] -0.095

MRPS35 (UniProt P82673)
inactive: erlotinib -0.068 | [1] -0.028 | [2] -0.048 | [3] 0.14 | [4] 0.003 | [5] -0.043 | [6] 0.022 | [7] 0.096 | [8] 0.042 | [9] -0.08

MRPS10 (UniProt P82664)
inactive: erlotinib -0.036 | [1] -0.089 | [2] -0.103 | [3] 0.048 | [4] 0.102 | [5] 0.023 | [6] -0.037 | [7] 0.04 | [8] 0.001 | [9] -0.012

MTMR3 (UniProt Q13615)
inactive: erlotinib 0.035 | [1] -0.011 | [2] -0.052 | [3] 0.01 | [4] -0.101 | [5] 0.059 | [6] 0.041 | [7] 0.079 | [8] -0.034 | [9] 0.068

MRPS25 (UniProt P82663)
inactive: erlotinib -0.069 | [1] -0.023 | [2] -0.022 | [3] 0.084 | [4] -0.048 | [5] 0 | [6] 0.083 | [7] 0.061 | [8] -0.036 | [9] -0.068

MTFR1L (UniProt Q9H019)
inactive: erlotinib -0.002 | [1] -0.013 | [2] -0.202 | [3] 0.064 | [4] -0.001 | [5] -0.03 | [6] 0.077 | [7] 0.13 | [8] 0.036 | [9] -0.027

MYL6 isoform 2 (UniProt P60660)
inactive: erlotinib -0.025 | [1] 0.016 | [2] 0.038 | [3] 0.035 | [4] 0.002 | [5] 0.041 | [6] 0.045 | [7] 0.029 | [8] -0.011 | [9] -0.107

MT-CO2 (UniProt P00403)
inactive: erlotinib -0.07 | [1] 0.043 | [2] -0.01 | [3] 0.031 | [4] -0.062 | [5] 0.099 | [6] -0.009 | [7] 0.099 | [8] 0.01 | [9] -0.042

MRPS26 (UniProt Q9BYN8)
inactive: erlotinib -0.081 | [1] 0.004 | [2] 0.004 | [3] 0.157 | [4] 0.038 | [5] 0.088 | [6] -0.042 | [7] 0.06 | [8] -0.19 | [9] 0.024

MRPL58 (UniProt Q14197)
inactive: erlotinib -0.056 | [1] -0.074 | [2] -0.115 | [3] 0.04 | [4] -0.052 | [5] -0.048 | [6] -0.048 | [7] 0.066 | [8] -0.014 | [9] -0.179
